Patent publication US11779597B2, “Method of treating Parkinson's and other neurodegenerative diseases” (Vector Vitale IP LLC, priority 2019, dated 2023)

Columns and labels:
microglia = experiment: Functional and phenotypic properties of microglia in LPS rat models; format: in vivo; details: sham-operated animals
Description: (§1) On the 1st day of the experiment, rats were either operated to model hemi-parkinsonism or sham operated. From the 9th to the 18th day of the experiment, the animals were injected either deuterium-depleted water or the test substance, according to their allocation into groups, for 10 days. On the 8th day of the experiment (before initiation of treatment—apomorphine test I) and on the 21st day of the experiment (after the end of administering the test substance —apomorphine test II) the animals underwent an apomorphine test to analyze the development of hemi-parkinsonism which correlates with the number of destroyed dopaminergic neurons. In addition, a follow-up analysis of fecal water content was carried out, i.e., before the start of treatment on the 8th day after the operation, as well as on the 21st (after the end of treatment) and the 28th day (before autopsy). […]
(§2) To assess the anti-inflammatory and immunomodulating effects of the test substance, microglia and peritoneal macrophages were isolated. Phenotypic and functional features of peripheral blood phagocytes were evaluated without their fractioning (using whole blood). […]
(§3) Phagocytic activity of microglia, peritoneal macrophages and peripheral blood phagocytes was analyzed on a flow cytometer using FITC-labeled S. aureus Wood 46 cells as an object of phagocytosis. […]

peritoneal macrophages = experiment: Functional and phenotypic properties of peritoneal phagocytes in LPS rat models; format: in vivo; details: sham-operated animals
Description: as §1, §2, §3

## ^64Zn-enriched zinc aspartate [^64Zne-asp]
microglia
  expression of all phenotypic markers under study (CD206, CD80, CD86) in microglia: decrease
  number of CD206+ and CD80+ cells in microglia: sharply increased
Peritoneal macrophages
  expression of all phenotypic markers in peritoneal macrophages: sharp increase
